Reference: PubChem BioAssay AID540276 (National Center for Advancing Translational Sciences (NCATS), 2011)
Out of some 300,000 compounds screened, about 5,400 (1.8%) were called active. The inconclusive results got no clear call from the source; some entries with a clear call stand among them for comparison. Calls follow the shape of the full dose curve; tested in HEK293 cells. A potency beside an inconclusive call is a rough fit, not a confirmed value.

assay: qHTS for inhibitors of binding or entry into cells for Marburg Virus; settings: Marburg virus pseudotyped entry inhibition, cell reporter; activity change, negative = inhibition: at 37.8 µM (top of the series) unless noted
% is scaled to controls: 0 for no effect and ±100 for the full control effect; potency is read from the fitted curve at half-maximal effect.

SMILES	Potency	activity change, negative = inhibition
O=C(O)CSCc1nc2cccnc2n1C1CCCCC1	inconclusive: 31.6 µM [activator, single point]	
Cc1c(Cl)c(C(=O)N2CCCc3ccccc32)nn1C		inactive: -12.6%
Cc1cccc(N(C)C(=O)c2cc3cc4ccc(C)cc4nc3o2)c1	inconclusive: 7.08 µM [inhibitor, partial curve, poor fit]	
Cc1cc(Nc2cccc(Br)c2)n2c(nc3ccccc32)c1C#N		inactive: 12.4% [at 46.1 µM]
COc1ccccc1NC(=O)c1c(C)cc(C)nc1SCC(=O)Nc1ccc(C)cc1	inconclusive: 25.1 µM [inhibitor, single point]	
COc1ccc(NC(=O)Cn2nnc(C(=O)NCc3ccco3)c2N)c(OC)c1	inconclusive: 35.5 µM [inhibitor, single point]	
Cc1ccc(C(=O)NC2CCCCNC2=O)cc1C (stereo unspecified)	inconclusive: 7.94 µM [activator, single point]	
O=C(CN(Cc1cccs1)C(=O)CCC(=O)Nc1ccccn1)NCc1ccccc1	inconclusive: 3.55 µM [activator, single point]	
COc1ccc(C(=O)N2CCN(C3CCCCC3)CC2)c(OC)c1	inconclusive: 6.51 µM [inhibitor, partial curve, poor fit]	
O=C(Cc1cccs1)NCc1ccccc1F	inconclusive: 18.3 µM [activator, partial curve]	
O=C(Cn1c2ccccc2c(=O)c2ccccc21)N/N=C/c1cc([N+](=O)[O-])ccc1N1CCCCC1	inconclusive: 0.562 µM [inhibitor, full curve, poor fit]	
CCC(C)N(C(=O)COC(=O)COc1c(C)cc(C)cc1C)C1CCS(=O)(=O)C1 (stereo unspecified)		inactive: 0%
O=C(CN1CCCCC1)Nc1ccc(C(F)(F)F)cc1Cl	inconclusive: 3.55 µM [activator, single point]	
COc1cc(C(=O)NCc2nnc(SCC(=O)NCCc3ccccc3)o2)cc(OC)c1OC		inactive: -6.24% [at 46.1 µM]
COc1ccc(/C=N/Nc2cc(C)nc3ccc(OC)cc23)c(OC)c1	inconclusive: 20 µM [inhibitor, partial curve, poor fit]	
COc1ccc(N=Cc2[nH]c3ccccc3c2O)cc1		inactive: -18.1%
O=[N+]([O-])c1ncccc1OCc1ccc(Cl)c(Cl)c1	inconclusive: 14.1 µM [inhibitor, single point]	
C=CCOc1ccccc1CN(CCc1ccccc1)C(=O)c1cccc(S(C)(=O)=O)c1	inconclusive: 17.8 µM [inhibitor, single point]	
CCCCOc1ccc(C(=O)NNC(=O)c2cnccn2)cc1OC	inconclusive: 12.6 µM [inhibitor, single point]	
Cc1ccc(Sc2ncccc2[N+](=O)[O-])cc1		inactive: -4.15% [at 46.1 µM]
O=C(c1ccc(CNS(=O)(=O)c2ccccc2)cc1)N1CCN(Cc2ccccc2)CC1	inconclusive: 20.6 µM [inhibitor, single point]	
CCc1ccc(NC(=O)CSc2nc3cc(C(=O)OC)ccc3c(=O)n2CC2CCCO2)cc1 (stereo unspecified)	inconclusive: 14.6 µM [inhibitor, partial curve, poor fit]	
COCCOC(=O)C1=C(C)OC(N)=C(C#N)[C@H]1c1ccco1		inactive: -2.4%
O=[N+]([O-])c1cc(S(=O)(=O)NCCN2CCOCC2)ccc1Sc1nnnn1-c1ccccc1	active: 16.4 µM	

SMILES	Potency	activity change, negative = inhibition
COc1ccc2[nH]c3c(=O)n(CCN4CCOCC4)cnc3c2c1	inconclusive: 10 µM [activator, partial curve, poor fit]	
CCCCNC(=O)Nc1ccc2c(c1)N(C)C(=O)c1ccccc1S2	inactive	
O=C(Nc1ccc(C(=O)N2CCOCC2)cc1)c1cc(-c2cccnc2)nc2ccc(Br)cc12	inconclusive: 11.2 µM [inhibitor, single point]	
CCN(CC)S(=O)(=O)c1cc([N+](=O)[O-])ccc1NNC(=O)Nc1ccc(Cl)c(Cl)c1	inconclusive: 35.5 µM [inhibitor, single point]	
Cc1ccccc1C(=O)N/N=C/c1ccncc1		inactive: 21.3%
Cc1cccc(-n2c(N)cc(=O)nc2SC(C)C(=O)NC2CCCCC2)c1 (stereo unspecified)		inactive: -1.1%
O=C(CSCc1ccc(F)cc1)NCc1ccco1		inactive: -1.05%
CCCCC(=O)NC(c1ccco1)c1cc(Cl)c2cccnc2c1O (stereo unspecified)	inconclusive: 14.1 µM [inhibitor, single point]	
CO/N=C/c1ccc(Sc2ccccc2)c([N+](=O)[O-])c1	inconclusive: 4.47 µM [inhibitor, full curve, poor fit]	
CCCCn1ccnc1C(=O)c1cccc(S(=O)(=O)N2c3ccccc3CC2C)c1 (stereo unspecified)	inconclusive: 25.1 µM [inhibitor, single point]	
CSc1nc(C)c2cc(C)oc2n1		inactive: -17.5%
C/C(=N\NC(=O)c1ccco1)c1ccc(NC(=O)c2cccs2)cc1		inactive: -4.79%
COc1ccc(Br)cc1/C=N/NC(=O)c1ccc(OC)c(OC)c1	inconclusive: 8.91 µM [inhibitor, partial curve, poor fit]	
CCOC(=O)c1c(C)n(C)c2cc(OCCN(CC)CC)ccc12	inconclusive: 23.1 µM [inhibitor, single point]	
Cc1cc(=O)oc(C)c1C(=O)NCCN1CCOCC1		inactive: -2.56%
S=c1[nH]nc(-c2cc(-c3ccco3)[nH]n2)n1-c1ccccc1	inconclusive: 1.58 µM [activator, single point]	
Cc1ccc(S(=O)(=O)c2nnn(CC(=O)Nc3ccccc3C)c2N)cc1		inactive: 2.81% [at 46.1 µM]
O=C(Cn1c(-c2ccccc2)noc1=O)N1CCC(Cc2ccccc2)CC1	inconclusive: 35.5 µM [inhibitor, single point]	
Cc1ccc(NC(=O)COc2cccnc2[N+](=O)[O-])cc1S(=O)(=O)N1CCCCC1	inconclusive: 8.2 µM [inhibitor, partial curve]	
Cc1nn(C)c(C(=O)Nc2cccc(CN3CCOCC3)c2)c1Br		inactive: 11.8%
CCCCOC(=O)Nc1nnc(/C=C/c2ccc(OC)cc2)s1		inactive: 29.8%
CCSc1n[nH]c2nc3c(c(=O)n12)C1(CCCC1)Cc1ccccc1-3		inactive: 20.4%
O=C(Nc1cccc(C(F)(F)F)c1)c1cc2nc(-c3ccco3)cc(C(F)(F)Cl)n2n1		inactive: -10.2% [at 46.1 µM]
CC(/C=N\NC(=O)Cn1c(C)nc2ccccc21)=C\c1ccccc1	inconclusive: 0.282 µM [inhibitor, full curve, poor fit]	

SMILES	Potency	activity change, negative = inhibition
Cc1ccnc(NS(=O)(=O)c2ccc(NC(=O)c3ccc([N+](=O)[O-])s3)cc2)n1		inactive: -28.3%
CCOC(=O)c1cc(C#N)c(Oc2ccc(F)cc2)nc1-c1ccccc1	inconclusive: 10 µM [inhibitor, partial curve, poor fit]	
O=C(CCCCCCCC(=O)N1CCCCCC1)N1CCCCCC1		inactive: -7.57%
CC(=O)O[C@]1(C(C)=O)CC[C@H]2[C@H]3C=C(Cl)C4=CC(=O)[C@@H]5C[C@@H]5[C@]4(C)[C@H]3CC[C@@]21C	inconclusive: 16.4 µM [inhibitor, partial curve, poor fit]	
Cc1ccc(NC(=O)NCc2ccc3c(c2)OCO3)cc1C		inactive: -1.82% [at 46.1 µM]
Cc1cc(Oc2ccccc2)nc(N)n1		inactive: 14.6%
NC(=S)Nc1cccc2cnccc12		inactive: -4.27%
Cc1onc(-c2ccccc2)c1CNC(=O)C1COc2ccccc2O1 (stereo unspecified)		inactive: 27.7% [at 14.2 µM]
CCOC(=O)c1ccc(NS(=O)(=O)c2ccc3c(c2)CCN3C(=O)CC)cc1	inconclusive: 12.6 µM [activator, partial curve]	
CCOc1ccc(NC(=O)N2CCN(Cc3ccc4c(c3)OCO4)CC2)cc1		inactive: -0.298%
COc1cc2c(=O)c(S(=O)(=O)c3ccc(C(C)C)cc3)cn(Cc3ccccc3C)c2cc1OC	inconclusive: 20 µM [inhibitor, partial curve, poor fit]	
CCN(CC)c1ccc(-c2nn3c(-c4cccnc4)nnc3s2)cc1	inconclusive: 29.1 µM [inhibitor, single point]	
Cc1[nH]c(C(=O)N/N=C/c2ccc(N(C)C)cc2)c(C)c1C(=O)N/N=C/c1ccc(N(C)C)cc1	inconclusive: 10 µM [activator, partial curve, poor fit]	
Cc1cc(=O)n2nc(N3CCC(C(=O)N4CCN(c5ccccc5)CC4)CC3)sc2n1	inconclusive: 0.562 µM [activator, full curve, poor fit]	
COc1ccc(/C=C/c2nc(-c3ccccc3O)n[nH]2)cc1	inconclusive: 20.6 µM [inhibitor, single point]	
FC(F)(F)c1ccccc1NC(=S)N1CCc2ccccc2C1	inconclusive: 32.6 µM [inhibitor, single point]	
CC(=O)C1(O)C(C)CC2C3CC(F)C4(O)CC(O)CCC4(C)C3CCC21C (stereo unspecified)	inconclusive: 0.794 µM [activator, single point]	
COc1ccc(N2C(=O)/C(=C\c3ccco3)N=C2SCC(=O)NC(C)C)cc1Cl		inactive: 5.55%
Nc1cc(=O)[nH]c(SCC(=O)Nc2ccccc2Sc2ccccc2)n1	inconclusive: 6.31 µM [activator, single point]	
COc1ccc(N2CCN(S(=O)(=O)c3cc(Br)cc4c3N(C(=O)C3CC3)CC4)CC2)cc1	inconclusive: 12.6 µM [activator, single point]	
CCOC(=O)c1c(CSc2ccccc2)oc2ccc(O)cc12	inconclusive: 13 µM [inhibitor, partial curve, poor fit]	
Cc1ccc(-c2ccc(CN3C(C(C)C)C(=O)N(Cc4cn(Cc5ccco5)nn4)CCS3(=O)=O)cc2)cc1 (stereo unspecified)	inconclusive: 5.6 µM [inhibitor, full curve, poor fit]	
CN1CCN(c2c([N+](=O)[O-])cnc3ccccc23)CC1	inconclusive: 5.62 µM [inhibitor, single point]	

As entered above:
Entry of O=[N+]([O-])c1cc(S(=O)(=O)NCCN2CCOCC2)ccc1Sc1nnnn1-c1ccccc1 under Potency: active: 16.4 µM
Entry of CC(/C=N\NC(=O)Cn1c(C)nc2ccccc21)=C\c1ccccc1 under Potency: inconclusive: 0.282 µM [inhibitor, full curve, poor fit]
Entry of Cc1ccccc1C(=O)N/N=C/c1ccncc1 under activity change, negative = inhibition: inactive: 21.3%
Entry of O=C(Nc1cccc(C(F)(F)F)c1)c1cc2nc(-c3ccco3)cc(C(F)(F)Cl)n2n1 under activity change, negative = inhibition: inactive: -10.2% [at 46.1 µM]
